Reference: publication PMC2824764
These are yes or no findings as the source states them, for the method shown. Binding seen in cells or lysates may run through a third protein. Some results given as binding are weak or reduced against the parent protein; the word gives no strength. For part of these data: Sequences can lack the tags named with a protein.

The chains behind the UniProt entries cited, without tags or fusion partners.
UniProt Q96CV9: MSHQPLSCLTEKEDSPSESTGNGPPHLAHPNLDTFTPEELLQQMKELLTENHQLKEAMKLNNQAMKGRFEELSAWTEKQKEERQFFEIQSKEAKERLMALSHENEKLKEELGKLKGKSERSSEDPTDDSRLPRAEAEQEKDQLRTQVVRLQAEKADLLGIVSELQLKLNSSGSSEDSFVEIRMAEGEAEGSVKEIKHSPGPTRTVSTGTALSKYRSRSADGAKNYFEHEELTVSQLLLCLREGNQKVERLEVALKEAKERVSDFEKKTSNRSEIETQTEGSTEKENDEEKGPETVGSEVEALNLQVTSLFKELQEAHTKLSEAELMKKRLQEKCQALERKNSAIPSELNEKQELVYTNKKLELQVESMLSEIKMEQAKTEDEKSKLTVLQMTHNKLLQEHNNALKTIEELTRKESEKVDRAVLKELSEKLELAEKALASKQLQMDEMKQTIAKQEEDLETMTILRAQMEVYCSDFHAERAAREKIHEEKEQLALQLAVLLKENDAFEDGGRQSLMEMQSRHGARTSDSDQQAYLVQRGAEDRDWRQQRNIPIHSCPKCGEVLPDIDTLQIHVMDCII
UniProt Q8K3K8: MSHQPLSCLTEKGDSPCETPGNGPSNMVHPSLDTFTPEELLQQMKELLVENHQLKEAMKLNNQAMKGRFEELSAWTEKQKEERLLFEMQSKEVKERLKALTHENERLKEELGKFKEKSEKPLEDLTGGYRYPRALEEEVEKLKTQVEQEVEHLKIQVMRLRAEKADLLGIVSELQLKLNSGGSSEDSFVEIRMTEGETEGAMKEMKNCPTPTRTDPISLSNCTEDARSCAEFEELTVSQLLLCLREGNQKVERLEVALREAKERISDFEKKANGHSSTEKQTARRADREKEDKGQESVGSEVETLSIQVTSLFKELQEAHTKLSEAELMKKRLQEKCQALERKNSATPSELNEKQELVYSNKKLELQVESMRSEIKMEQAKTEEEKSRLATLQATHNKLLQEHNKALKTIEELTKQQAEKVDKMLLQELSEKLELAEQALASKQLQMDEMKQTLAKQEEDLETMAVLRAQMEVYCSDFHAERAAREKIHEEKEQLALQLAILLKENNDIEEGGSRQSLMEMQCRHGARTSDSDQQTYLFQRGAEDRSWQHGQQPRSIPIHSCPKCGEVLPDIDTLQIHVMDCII

How the values were obtained:
[1] = biological target: T1, endogenous TBK1 (RAW264.7) (mouse (endogenous in RAW264.7)) (UniProt Q9WUN2); assay: co-IP; endogenous proteins from RAW264.7 cells treated with poly-I:C (100 µg/ml) for the times indicated; 1 mg of lysate with anti-optineurin or anti-TBK1 antibody, protein G agarose; pre-immune IgG as control
T1 sequence: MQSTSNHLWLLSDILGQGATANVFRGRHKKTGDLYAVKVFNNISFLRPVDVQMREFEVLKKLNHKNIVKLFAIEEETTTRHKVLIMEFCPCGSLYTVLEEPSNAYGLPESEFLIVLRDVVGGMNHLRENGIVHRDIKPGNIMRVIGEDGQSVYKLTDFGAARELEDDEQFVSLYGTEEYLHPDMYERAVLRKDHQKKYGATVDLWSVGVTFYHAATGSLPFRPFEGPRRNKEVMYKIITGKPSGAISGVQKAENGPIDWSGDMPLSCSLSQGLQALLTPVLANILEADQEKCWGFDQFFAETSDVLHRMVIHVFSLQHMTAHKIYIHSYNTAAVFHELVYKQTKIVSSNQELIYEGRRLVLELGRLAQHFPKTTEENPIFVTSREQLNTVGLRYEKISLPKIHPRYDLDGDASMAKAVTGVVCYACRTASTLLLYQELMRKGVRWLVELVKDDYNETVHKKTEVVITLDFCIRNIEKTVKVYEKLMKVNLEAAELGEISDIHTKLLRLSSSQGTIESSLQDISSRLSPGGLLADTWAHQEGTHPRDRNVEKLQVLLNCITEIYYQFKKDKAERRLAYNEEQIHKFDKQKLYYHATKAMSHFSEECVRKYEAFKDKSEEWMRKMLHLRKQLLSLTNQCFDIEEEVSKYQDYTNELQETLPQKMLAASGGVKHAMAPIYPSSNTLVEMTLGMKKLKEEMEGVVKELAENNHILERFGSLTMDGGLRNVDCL

GST-TBK1 [2] = biological target: T2, GST-TBK1 (UniProt Q9UHD2); assay: pull-down; GST fusion (or GST) and HA- or FLAG-tagged partner co-expressed in HEK293T cells; 1 mg of total cell lysate with glutathione-agarose beads for 4 hours at 4°C, washed in lysis buffer; immunoblot for the tag; with or without SeV infection (100 HA units/ml, 8 hours) in Figure 4A
T2 sequence: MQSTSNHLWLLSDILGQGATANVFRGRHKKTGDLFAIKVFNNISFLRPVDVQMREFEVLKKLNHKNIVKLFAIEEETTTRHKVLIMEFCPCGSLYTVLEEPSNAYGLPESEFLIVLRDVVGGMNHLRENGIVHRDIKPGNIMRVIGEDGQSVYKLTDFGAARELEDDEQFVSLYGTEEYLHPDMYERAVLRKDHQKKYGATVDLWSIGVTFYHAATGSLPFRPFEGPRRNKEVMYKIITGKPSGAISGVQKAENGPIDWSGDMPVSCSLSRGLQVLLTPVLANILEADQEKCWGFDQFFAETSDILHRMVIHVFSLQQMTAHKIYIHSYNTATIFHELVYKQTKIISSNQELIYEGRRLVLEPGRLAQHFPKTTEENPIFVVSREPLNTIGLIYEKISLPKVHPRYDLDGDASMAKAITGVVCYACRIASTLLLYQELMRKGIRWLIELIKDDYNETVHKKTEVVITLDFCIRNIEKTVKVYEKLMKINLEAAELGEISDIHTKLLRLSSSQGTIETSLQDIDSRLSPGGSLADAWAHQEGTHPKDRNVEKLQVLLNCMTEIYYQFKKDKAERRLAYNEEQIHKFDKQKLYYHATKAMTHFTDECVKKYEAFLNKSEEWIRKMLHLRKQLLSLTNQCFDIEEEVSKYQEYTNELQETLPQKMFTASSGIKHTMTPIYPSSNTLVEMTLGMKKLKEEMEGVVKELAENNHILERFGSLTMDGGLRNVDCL

GST-TBK1 [3] = biological target: T2, GST-TBK1; assay: pull-down; GST pull-down repeated in HEK293-TLR3 cells treated with dsRNA to activate TLR3 signalling; data not shown
GST-optineurin = GST-optineurin (UniProt Q96CV9); assay: pull-down; GST fusion (or GST) and HA- or FLAG-tagged partner co-expressed in HEK293T cells; 1 mg of total cell lysate with glutathione-agarose beads for 4 hours at 4°C, washed in lysis buffer; immunoblot for the tag; with or without SeV infection (100 HA units/ml, 8 hours) in Figure 4A
[4] = biological target: FLAG-tagged wild type optineurin (UniProt Q96CV9); assay: co-IP; sequential: HEK293T cells with FLAG-optineurin with or without HA-TBK1; anti-FLAG agarose, elution with FLAG peptide, then immunoprecipitation with anti-TRAF3 antibody, anti-HA immunoblot

In the case of “endogenous optineurin (RAW264.7) (from UniProt Q8K3K8 1-584)”, the binding [1] is reported as “binds”.

For “HA-tagged optineurin (from UniProt Q96CV9 1-577)”, the binding (GST-TBK1 [2]) was “binds” and the binding (GST-TBK1 [3]) was “binds”.

“FLAG-tagged wild type optineurin (from UniProt Q96CV9 1-577)” was tested, and the binding (GST-TBK1 [2]) was “binds”.

B1: HA-TBK1 (enzyme, UniProt Q9UHD2 1-729)
chain: T2 sequence
B1 was tested, and the binding (GST-optineurin) was “binds” and the binding [4] was “binds”.
